# US8895574B2, “Benzyloxypyrimidine derivative, agricultural/ horticultural insecticide comprising derivative and method for using same” (Nihon Nohyaku Co., Ltd., priority 2010, dated 2014)
# Some entries share one result that the patent states for a list of compounds. Some compounds share one range, which may span the group rather than tell each member.
# Tested on: green peach aphid (Myzus persicae)
# Assay: Control efficacy against green peach aphid, foliar spray on potted Chinese cabbage
# Type: in vivo
# Details: 500 ppm liquid chemical sprayed on stalks and leaves of Chinese cabbage; six days after spraying
row,Structure (SMILES),"insecticidal effect against green peach aphid (control efficacy, judged by criterion)"
1,COc1cncnc1OC(C)c1ccc([Si](C)(C)C)cc1 (racemic) [1-76],D (control efficacy 79%-50%)
2,CCC(C)Oc1cncnc1OCc1ccc(C(F)(F)F)cc1 (racemic) [1-250],D (control efficacy 79%-50%)
3,CCC(C)Oc1cncnc1OCc1ccc(C(F)(F)F)cc1F (racemic) [1-258],D (control efficacy 79%-50%)
4,CCC(C)Oc1cncnc1OCc1ccc(C(F)(F)F)cc1Cl (racemic) [1-265],D (control efficacy 79%-50%)
5,COc1cncnc1OC(c1ccc(C(F)(F)F)cc1)C1CC1 (racemic) [3-109],D (control efficacy 79%-50%)
6,CCC(C)Oc1cncnc1OCc1cc(C(F)(F)F)ccc1F (racemic) [3-113],D (control efficacy 79%-50%)
7,CCC(C)Oc1cncnc1OCc1cccc(C(F)(F)F)c1 (racemic) [3-120],D (control efficacy 79%-50%)
8,CCC(C)Oc1cncnc1OCc1cccc(C(F)(F)F)c1F (racemic) [3-122],D (control efficacy 79%-50%)
9,CCC(C)Oc1cncnc1OCc1ccc(OC(F)(F)F)cc1 (racemic) [3-125],D (control efficacy 79%-50%)
10,FC(F)(F)Oc1ccc(COc2ncncc2OCC2CCCO2)cc1 (racemic) [3-127],D (control efficacy 79%-50%)
11,CCOc1cncnc1OCc1ccc(C(C)(C)C)cc1 [1-2],D (control efficacy 79%-50%)
12,CC(C)COc1cncnc1OCc1ccc(C(C)(C)C)cc1 [1-5],D (control efficacy 79%-50%)
13,CC(C)(C)c1ccc(COc2ncncc2OC2CCCC2)cc1 [1-6],D (control efficacy 79%-50%)
14,CSCOc1cncnc1OCc1ccc(C(C)(C)C)cc1 [1-8],D (control efficacy 79%-50%)
15,CC(C)(C)c1ccc(COc2ncncc2OCC2CC2)cc1 [1-9],D (control efficacy 79%-50%)
16,CC(C)(C)c1ccc(COc2ncncc2Oc2ccccc2)cc1 [1-14],D (control efficacy 79%-50%)
17,CC(Oc1ncncc1Oc1ccccc1)c1ccc(C(C)(C)C)cc1 (stereo not shown) [1-16],D (control efficacy 79%-50%)
18,COc1cncnc1OC(c1ccc(C(C)(C)C)cc1)C(C)C (stereo not shown) [1-18],D (control efficacy 79%-50%)
19,C=C(Cl)COc1cncnc1OCc1ccc(C(C)C)cc1 [1-28],D (control efficacy 79%-50%)
20,CC(C)c1ccc(COc2ncncc2OC/C(Cl)=C\Cl)cc1 [1-30],D (control efficacy 79%-50%)
21,CC(C)Cc1ccc(COc2ncncc2OC2CCCC2)cc1 [1-39],D (control efficacy 79%-50%)
22,CC(C)Cc1ccc(COc2ncncc2OCC2CC2)cc1 [1-41],D (control efficacy 79%-50%)
23,CC(C)Cc1ccc(COc2ncncc2OCCCl)cc1 [1-42],D (control efficacy 79%-50%)
24,CCOc1cncnc1OCc1ccc([Si](C)(C)C)cc1 [1-63],D (control efficacy 79%-50%)

row,Structure (SMILES),"insecticidal effect against green peach aphid (control efficacy, judged by criterion)"
1,C=C(Cl)COc1cncnc1OCc1ccc([Si](C)(C)C)cc1 [1-70],D (control efficacy 79%-50%)
2,COc1cncnc1OCc1ccc([Si](C)(C)C)c(Cl)c1 [1-74],D (control efficacy 79%-50%)
3,CCCOc1cncnc1OCc1ccc(C(F)(F)F)cc1 [1-80],D (control efficacy 79%-50%)
4,CC(C)Oc1cncnc1OCc1ccc(C(F)(F)F)cc1 [1-81],D (control efficacy 79%-50%)
5,C#CCOc1cncnc1OCc1ccc(C(F)(F)F)cc1 [1-86],D (control efficacy 79%-50%)
6,FCCOc1cncnc1OCc1ccc(C(F)(F)F)cc1 [1-88],D (control efficacy 79%-50%)
7,C=CCOc1cncnc1OCc1ccc(C(F)(F)F)cc1 [1-90],D (control efficacy 79%-50%)
8,FC(F)(F)c1ccc(COc2ncncc2OC/C=C\Cl)cc1 [1-92],D (control efficacy 79%-50%)
9,FC(F)(F)c1ccc(COc2ncncc2OCc2ccccc2)cc1 [1-94],D (control efficacy 79%-50%)
10,FC(F)(F)Oc1ccc(COc2ncncc2OC2CCCC2)cc1 [1-107],D (control efficacy 79%-50%)
11,FC(F)(F)Oc1ccc(COc2ncncc2OCC2CC2)cc1 [1-109],D (control efficacy 79%-50%)
12,FC(F)(F)Oc1ccc(COc2ncncc2OCCCl)cc1 [1-110],D (control efficacy 79%-50%)
13,FC(F)(F)Oc1ccc(COc2ncncc2OC/C(Cl)=C\Cl)cc1 [1-113],D (control efficacy 79%-50%)
14,FC(F)(F)Oc1ccc(COc2ncncc2Oc2ccccc2)cc1 [1-114],D (control efficacy 79%-50%)
15,FC(F)C(F)(F)Oc1ccc(COc2ncncc2OC2CCCC2)cc1 [1-124],D (control efficacy 79%-50%)
16,FC(F)C(F)(F)Oc1ccc(COc2ncncc2OCC2CC2)cc1 [1-129],D (control efficacy 79%-50%)
17,FC(F)C(F)(F)Oc1ccc(COc2ncncc2OCCCl)cc1 [1-130],D (control efficacy 79%-50%)
18,FC(F)C(F)(F)Oc1ccc(COc2ncncc2Oc2ccccc2)cc1 [1-135],D (control efficacy 79%-50%)
19,CCOc1cncnc1OCc1ccc(SC(F)(F)F)cc1 [1-139],D (control efficacy 79%-50%)
20,CC(C)Oc1cncnc1OCc1ccc(SC(F)(F)F)cc1 [1-141],D (control efficacy 79%-50%)
21,FC(F)(F)Sc1ccc(COc2ncncc2OC2CCCC2)cc1 [1-142],D (control efficacy 79%-50%)
22,FC(F)(F)Sc1ccc(COc2ncncc2OCC2CC2)cc1 [1-143],D (control efficacy 79%-50%)
23,FC(F)(F)Sc1ccc(COc2ncncc2OCCCl)cc1 [1-144],D (control efficacy 79%-50%)
24,C=C(Cl)COc1cncnc1OCc1ccc(SC(F)(F)F)cc1 [1-145],D (control efficacy 79%-50%)

row,Structure (SMILES),"insecticidal effect against green peach aphid (control efficacy, judged by criterion)"
1,FC(F)(F)Sc1ccc(COc2ncncc2OC/C(Cl)=C\Cl)cc1 [1-147],D (control efficacy 79%-50%)
2,FC(F)(F)Sc1ccc(COc2ncncc2Oc2ccccc2)cc1 [1-148],D (control efficacy 79%-50%)
3,FC(F)(F)C(F)(F)Sc1ccc(COc2ncncc2OCC2CC2)cc1 [1-156],D (control efficacy 79%-50%)
4,FC(F)(F)C(F)(F)Sc1ccc(COc2ncncc2OCCCl)cc1 [1-157],D (control efficacy 79%-50%)
5,COc1cncnc1OCc1ccc(Br)cc1 [1-207],D (control efficacy 79%-50%)
6,COc1cncnc1OCc1cccc(Cl)c1 [1-208],D (control efficacy 79%-50%)
7,COc1cncnc1OCc1ccc(OC(C)(C)C)cc1 [1-212],D (control efficacy 79%-50%)
8,COc1cncnc1OCc1ccc(SC)cc1 [1-213],D (control efficacy 79%-50%)
9,COc1cncnc1OCc1ccc([S+](C)[O-])cc1 (stereo not shown) [1-214],D (control efficacy 79%-50%)
10,COc1cncnc1OCc1ccc(S(C)(=O)=O)cc1 [1-215],D (control efficacy 79%-50%)
11,COc1cncnc1OCc1ccc(Cl)c(Cl)c1 [1-222],D (control efficacy 79%-50%)
12,COc1cncnc1OCc1ccccc1 [1-224],D (control efficacy 79%-50%)
13,COc1cncnc1OCc1ccc(OC(C)C)cc1 [1-227],D (control efficacy 79%-50%)
14,COCOc1cncnc1OCc1ccc(OC(C)C)cc1 [1-228],D (control efficacy 79%-50%)
15,COc1cncnc1OC(C)(C)c1ccccc1 [1-231],D (control efficacy 79%-50%)
16,COc1cncnc1OCc1ccc(Cl)cc1F [1-242],D (control efficacy 79%-50%)
17,COc1cncnc1OCc1ccc(Br)cc1F [1-243],D (control efficacy 79%-50%)
18,CSc1cncnc1OCc1ccc(C(F)(F)F)cc1 [1-246],D (control efficacy 79%-50%)
19,CCSc1cncnc1OCc1ccc(C(F)(F)F)cc1 [1-247],D (control efficacy 79%-50%)
20,CCCCOc1cncnc1OCc1ccc(C(F)(F)F)cc1 [1-248],D (control efficacy 79%-50%)
21,CC(C)COc1cncnc1OCc1ccc(C(F)(F)F)cc1 [1-249],D (control efficacy 79%-50%)
22,CCC(CC)Oc1cncnc1OCc1ccc(C(F)(F)F)cc1 [1-251],D (control efficacy 79%-50%)
